These are yes or no findings as the source states them, for the method shown. In cells and extracts the contact can be indirect. Some binding calls cover weakened binding; strength is not graded here.
Biological target: T1, vascular endothelial (VE)-cadherin (human (endogenous in HUVEC)), P33151
T1 chain: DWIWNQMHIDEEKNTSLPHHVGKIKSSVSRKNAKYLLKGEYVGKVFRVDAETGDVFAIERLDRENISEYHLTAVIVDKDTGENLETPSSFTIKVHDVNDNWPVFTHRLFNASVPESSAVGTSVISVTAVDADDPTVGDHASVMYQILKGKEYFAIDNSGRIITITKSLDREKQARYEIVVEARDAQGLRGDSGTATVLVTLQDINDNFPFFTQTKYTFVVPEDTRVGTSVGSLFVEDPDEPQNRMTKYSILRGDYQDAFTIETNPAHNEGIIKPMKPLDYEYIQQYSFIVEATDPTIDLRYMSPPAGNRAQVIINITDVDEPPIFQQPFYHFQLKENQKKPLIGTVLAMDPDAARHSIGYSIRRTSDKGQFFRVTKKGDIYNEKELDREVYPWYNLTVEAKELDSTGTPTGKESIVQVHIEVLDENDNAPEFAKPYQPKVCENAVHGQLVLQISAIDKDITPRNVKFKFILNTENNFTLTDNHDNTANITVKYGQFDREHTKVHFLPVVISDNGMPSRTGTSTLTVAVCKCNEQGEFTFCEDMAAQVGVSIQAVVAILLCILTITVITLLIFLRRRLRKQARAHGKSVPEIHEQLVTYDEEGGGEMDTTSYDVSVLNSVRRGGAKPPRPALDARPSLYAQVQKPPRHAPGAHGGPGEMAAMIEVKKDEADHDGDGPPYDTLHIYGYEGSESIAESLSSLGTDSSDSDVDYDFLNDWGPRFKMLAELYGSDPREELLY
Assay: co-IP; immunoprecipitation of VE-cadherin from HUVEC cultured with MDA MB231 cells for 0 min, 5 min, 30 min and 1 h, then immunoblotting
Conditions: remark: other sources report otherwise

binding: binds
B1: β-catenin, P35222 1-781 (protein)
chain: MATQADLMELDMAMEPDRKAAVSHWQQQSYLDSGIHSGATTTAPSLSGKGNPEEEDVDTSQVLYEWEQGFSQSFTQEQVADIDGQYAMTRAQRVRAAMFPETLDEGMQIPSTQFDAAHPTNVQRLAEPSQMLKHAVVNLINYQDDAELATRAIPELTKLLNDEDQVVVNKAAVMVHQLSKKEASRHAIMRSPQMVSAIVRTMQNTNDVETARCTAGTLHNLSHHREGLLAIFKSGGIPALVKMLGSPVDSVLFYAITTLHNLLLHQEGAKMAVRLAGGLQKMVALLNKTNVKFLAITTDCLQILAYGNQESKLIILASGGPQALVNIMRTYTYEKLLWTTSRVLKVLSVCSSNKPAIVEAGGMQALGLHLTDPSQRLVQNCLWTLRNLSDAATKQEGMEGLLGTLVQLLGSDDINVVTCAAGILSNLTCNNYKNKMMVCQVGGIEALVRTVLRAGDREDITEPAICALRHLTSRHQEAEMAQNAVRLHYGLPVVVKLLHPPSHWPLIKATVGLIRNLALCPANHAPLREQGAIPRLVQLLVRAHQDTQRRTSMGGTQQQFVEGVRMEEIVEGCTGALHILARDVHNRIVIRGLNTIPLFVQLLYSPIENIQRVAAGVLCELAQDKEAAEAIEAEGATAPLTELLHSRNEGVATYAAAVLFRMSEDKPQDYKKRLSVELTSSLFRTEPMAWNETADLGLDIGAQGEPLGYRQDDPSYRSFHSGGYGQDALGMDPMMEHEMGGHHPGADYPVDGLPDLGHAQDLMDGLPPGDSNQLAWFDTDL

Reference: article PMC2062786
